In PMC10275993 one finds binding data, which are given here for two molecules.

Sequences of proteins named here, by UniProt entry; tags and fusion partners are left off.
UniProt P06748: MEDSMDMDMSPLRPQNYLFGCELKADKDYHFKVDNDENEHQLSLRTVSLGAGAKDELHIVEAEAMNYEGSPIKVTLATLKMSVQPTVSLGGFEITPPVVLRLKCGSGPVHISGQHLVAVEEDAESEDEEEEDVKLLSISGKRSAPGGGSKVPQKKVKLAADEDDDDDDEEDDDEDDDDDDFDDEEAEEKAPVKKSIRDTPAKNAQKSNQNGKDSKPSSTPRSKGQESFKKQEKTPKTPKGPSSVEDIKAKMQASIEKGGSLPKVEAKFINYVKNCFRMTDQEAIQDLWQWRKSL

No constants are given. Whether binding was seen depends on the method and setting. In cells and extracts the contact can be indirect. Some entries that bind do so weakly or less than the wild type. For some of these results: Where a sequence is shown, tags or fusion partners need not be part of it.

What all share (assay): co-IP; 1 nmol synthetic HA-tagged (XR)12 peptide mixed with HEK293 lysate (200 μg/sample), anti-HA antibody beads, 4 h at 4°C, IP buffer 150 mM NaCl, 20 mM HEPES pH 7.4, 1 mM EDTA, 0.5% Triton X-100; immunoblot of endogenous proteins; only the target purified
In one experiment the target is T1, HA-(PR)12 (human).
T1 sequence (peptide): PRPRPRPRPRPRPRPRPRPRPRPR

For the next experiment, the target named is HA-(QR)12.
The target in a further experiment is HA-(YR)12.

“nucleophosmin (NPM1) (from UniProt P06748 1-294)”: the binding entry in the experiment with HA-(PR)12 (human) is given as “binds”.

B1: Non-POU domain-containing octamer-binding protein (NONO) (protein, UniProt Q15233 1-471)
chain: MQSNKTFNLEKQNHTPRKHHQHHHQQQHHQQQQQQPPPPPIPANGQQASSQNEGLTIDLKNFRKPGEKTFTQRSRLFVGNLPPDITEEEMRKLFEKYGKAGEVFIHKDKGFGFIRLETRTLAEIAKVELDNMPLRGKQLRVRFACHSASLTVRNLPQYVSNELLEEAFSVFGQVERAVVIVDDRGRPSGKGIVEFSGKPAARKALDRCSEGSFLLTTFPRPVTVEPMDQLDDEEGLPEKLVIKNQQFHKEREQPPRFAQPGSFEYEYAMRWKALIEMEKQQQDQVDRNIKEAREKLEMEMEAARHEHQVMLMRQDLMRRQEELRRMEELHNQEVQKRKQLELRQEEERRRREEEMRRQQEEMMRRQQEGFKGTFPDAREQEIRMGQMAMGGAMGINNRGAMPPAPVPAGTPAPPGPATMMPDGTLGLTPPTTERFGQAATMEGIGAIGGTPPAFNRAAPGAEFAPNKRRRY
Take B1: the binding entry with HA-(PR)12 (human), in the experiment with HA-(QR)12 and in the experiment with HA-(YR)12 was “binds” throughout.
